These are yes or no findings as the source states them, for the method shown. Some binding calls cover weakened binding; strength is not graded here.
Target: T1, PROM2 (human) (UniProt Q8N271)
T1 sequence (looked up): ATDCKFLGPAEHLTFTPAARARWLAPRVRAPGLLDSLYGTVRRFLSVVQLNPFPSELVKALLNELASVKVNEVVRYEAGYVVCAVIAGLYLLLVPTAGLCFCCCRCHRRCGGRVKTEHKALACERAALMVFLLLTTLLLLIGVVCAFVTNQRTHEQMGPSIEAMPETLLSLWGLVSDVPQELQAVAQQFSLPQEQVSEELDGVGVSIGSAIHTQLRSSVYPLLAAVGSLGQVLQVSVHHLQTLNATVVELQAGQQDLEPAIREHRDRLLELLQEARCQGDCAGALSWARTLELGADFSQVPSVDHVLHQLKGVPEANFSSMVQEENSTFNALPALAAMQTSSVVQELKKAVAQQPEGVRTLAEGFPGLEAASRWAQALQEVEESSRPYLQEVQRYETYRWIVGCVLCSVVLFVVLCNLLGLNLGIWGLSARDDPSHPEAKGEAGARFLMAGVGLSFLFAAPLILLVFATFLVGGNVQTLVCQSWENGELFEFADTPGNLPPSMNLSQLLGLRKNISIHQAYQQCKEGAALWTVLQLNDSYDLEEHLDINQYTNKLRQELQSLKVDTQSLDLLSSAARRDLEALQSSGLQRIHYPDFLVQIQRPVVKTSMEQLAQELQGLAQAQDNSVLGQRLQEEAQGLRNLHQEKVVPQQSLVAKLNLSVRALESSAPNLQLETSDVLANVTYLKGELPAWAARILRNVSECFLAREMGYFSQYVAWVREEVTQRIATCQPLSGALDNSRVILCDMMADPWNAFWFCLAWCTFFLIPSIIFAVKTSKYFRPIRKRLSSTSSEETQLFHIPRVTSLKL
Assay: Retrogenix cell microarray

binding: binds
B1: z2-XVT458-m2 (antibody, V domains shown)
VH: QVQLVQSGAEVKKPGASVKVSCKASGYTFTNFYIHWVRQAPGQGLEWMGRIYPNYGFTAYNQKFKDRVTMTVDTSTSTAYMELRSLRSDDTAVYYCARGYSYAMDYWGQGTTVTVSS
VL: DIQMTQSPSSVSASVGDRVTITCSASQGIYGDLNWYQQKPGKAPKLLIYHTSSLHSGVPSRFSGSGSGTDFTLTISSLQPEDFATYYCQAYSKDLLTFGGGTKLEIK

Reference: US20260207762A1
